{"sequences": {"note": "The chains behind the UniProt entries cited, without tags or fusion partners. Where a name states a change or a piece, a line headed by the entry shows the natural chain unless it says otherwise.", "UniProt Q08722": "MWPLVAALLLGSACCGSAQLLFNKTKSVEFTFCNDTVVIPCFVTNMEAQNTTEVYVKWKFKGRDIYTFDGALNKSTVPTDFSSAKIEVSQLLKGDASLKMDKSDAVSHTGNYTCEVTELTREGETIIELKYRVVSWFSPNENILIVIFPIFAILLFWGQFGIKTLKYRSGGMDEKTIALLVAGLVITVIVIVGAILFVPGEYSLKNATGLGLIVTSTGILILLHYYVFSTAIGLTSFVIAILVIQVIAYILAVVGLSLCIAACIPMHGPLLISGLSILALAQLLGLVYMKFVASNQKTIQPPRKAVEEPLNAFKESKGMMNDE"}, "source": "patent US20200270345A1", "about": "(JOINT STOCK COMPANY BIOCAD, published 2020)", "binders": {"B1": {"name": "BCD106-02_L.Alecto.VHHSel2_MP1_G5_37 (VHH)", "VHH": "AVQLVDSGGGLVQPGGSLRLSCAASRSIFSINAMNWYRQAPGNRREWVAQITDEGITNYVDSVKGRFTITRDNAKNTMYLQMNSLKPEDTAVYYCNAFVITTTSEIYWGQGTTVTVSS", "notes": "Llama anti-CD47 VHH tested as E. coli culture supernatant; not shown: myc and His6 tags at the C-terminus of the VHH (pET-22)"}}, "target": "T1, human CD47-Fc (human, UniProt Q08722 19-134)", "T1 construct": "Leu19-Val134 is the natural numbering printed; also called human CD47-Fc receptor; human CD47-Fc (Biocad); not shown: Fc tag of the expression plasmid", "experiment": "BLI (Octet Red 96), CD47-Fc on ARG2 sensor, VHH in growth medium", "note": "Results are given in words; binding and its absence hold for the method and conditions named. Some entries that bind do so weakly or less than the wild type.", "data": [{"binder": "B1", "values": [{"measurement": "binding", "result": "binds"}]}]}
